According to paper PMC5718613:
No constants are given. Whether binding was seen depends on the method and setting. In cells and extracts the contact can be indirect. Some entries that bind do so weakly or less than the wild type.

Chains of the proteins cited; added tags and fusions are not shown.
UniProt Q2G185: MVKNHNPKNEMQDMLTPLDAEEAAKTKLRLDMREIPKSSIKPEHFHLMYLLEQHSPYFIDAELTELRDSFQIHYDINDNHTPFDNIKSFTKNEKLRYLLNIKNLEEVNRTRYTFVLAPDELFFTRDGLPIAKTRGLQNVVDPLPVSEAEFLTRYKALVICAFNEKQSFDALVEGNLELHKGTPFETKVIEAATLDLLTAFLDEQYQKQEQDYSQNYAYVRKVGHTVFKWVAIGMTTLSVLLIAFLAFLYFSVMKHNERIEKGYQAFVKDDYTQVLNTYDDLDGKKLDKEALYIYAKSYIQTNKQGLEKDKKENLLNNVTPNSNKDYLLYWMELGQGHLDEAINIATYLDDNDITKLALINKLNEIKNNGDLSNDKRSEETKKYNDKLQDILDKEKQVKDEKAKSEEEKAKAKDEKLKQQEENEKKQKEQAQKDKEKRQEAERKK
UniProt Q2G184: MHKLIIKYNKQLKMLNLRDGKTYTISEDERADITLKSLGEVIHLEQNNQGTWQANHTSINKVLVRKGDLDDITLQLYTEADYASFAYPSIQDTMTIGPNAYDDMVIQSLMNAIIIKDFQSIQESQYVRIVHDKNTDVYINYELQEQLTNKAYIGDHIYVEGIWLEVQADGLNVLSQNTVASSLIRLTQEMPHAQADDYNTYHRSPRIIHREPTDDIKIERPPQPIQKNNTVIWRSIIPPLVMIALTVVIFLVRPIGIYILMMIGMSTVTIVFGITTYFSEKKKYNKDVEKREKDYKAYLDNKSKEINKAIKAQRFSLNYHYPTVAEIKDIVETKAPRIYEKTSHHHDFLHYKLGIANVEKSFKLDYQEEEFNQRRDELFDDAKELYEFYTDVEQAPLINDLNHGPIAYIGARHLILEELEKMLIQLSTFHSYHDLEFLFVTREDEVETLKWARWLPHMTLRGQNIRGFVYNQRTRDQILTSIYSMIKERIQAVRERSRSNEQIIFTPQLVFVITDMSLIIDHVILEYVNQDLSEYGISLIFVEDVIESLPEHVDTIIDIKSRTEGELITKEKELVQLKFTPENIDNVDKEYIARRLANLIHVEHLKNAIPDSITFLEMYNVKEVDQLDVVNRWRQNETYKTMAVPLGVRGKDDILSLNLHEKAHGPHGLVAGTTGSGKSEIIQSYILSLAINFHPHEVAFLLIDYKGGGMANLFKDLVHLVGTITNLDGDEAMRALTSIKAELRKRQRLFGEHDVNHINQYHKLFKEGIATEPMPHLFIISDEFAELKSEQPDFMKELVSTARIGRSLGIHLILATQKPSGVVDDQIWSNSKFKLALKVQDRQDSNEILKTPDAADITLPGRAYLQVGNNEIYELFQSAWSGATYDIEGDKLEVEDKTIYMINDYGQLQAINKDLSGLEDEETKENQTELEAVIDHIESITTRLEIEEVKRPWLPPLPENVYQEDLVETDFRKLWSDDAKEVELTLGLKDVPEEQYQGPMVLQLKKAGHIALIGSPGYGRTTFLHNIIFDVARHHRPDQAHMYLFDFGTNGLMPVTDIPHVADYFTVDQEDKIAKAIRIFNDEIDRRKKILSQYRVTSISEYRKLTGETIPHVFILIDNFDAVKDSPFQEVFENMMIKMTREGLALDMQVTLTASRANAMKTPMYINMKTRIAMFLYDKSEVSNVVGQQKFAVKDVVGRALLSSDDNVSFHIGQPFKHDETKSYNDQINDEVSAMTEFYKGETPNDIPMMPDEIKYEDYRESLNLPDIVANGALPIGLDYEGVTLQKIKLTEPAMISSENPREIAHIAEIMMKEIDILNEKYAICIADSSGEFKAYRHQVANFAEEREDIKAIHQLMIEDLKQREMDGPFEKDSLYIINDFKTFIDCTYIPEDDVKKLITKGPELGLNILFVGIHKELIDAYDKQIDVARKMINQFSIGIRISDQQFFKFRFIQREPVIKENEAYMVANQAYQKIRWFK
UniProt Q2G188: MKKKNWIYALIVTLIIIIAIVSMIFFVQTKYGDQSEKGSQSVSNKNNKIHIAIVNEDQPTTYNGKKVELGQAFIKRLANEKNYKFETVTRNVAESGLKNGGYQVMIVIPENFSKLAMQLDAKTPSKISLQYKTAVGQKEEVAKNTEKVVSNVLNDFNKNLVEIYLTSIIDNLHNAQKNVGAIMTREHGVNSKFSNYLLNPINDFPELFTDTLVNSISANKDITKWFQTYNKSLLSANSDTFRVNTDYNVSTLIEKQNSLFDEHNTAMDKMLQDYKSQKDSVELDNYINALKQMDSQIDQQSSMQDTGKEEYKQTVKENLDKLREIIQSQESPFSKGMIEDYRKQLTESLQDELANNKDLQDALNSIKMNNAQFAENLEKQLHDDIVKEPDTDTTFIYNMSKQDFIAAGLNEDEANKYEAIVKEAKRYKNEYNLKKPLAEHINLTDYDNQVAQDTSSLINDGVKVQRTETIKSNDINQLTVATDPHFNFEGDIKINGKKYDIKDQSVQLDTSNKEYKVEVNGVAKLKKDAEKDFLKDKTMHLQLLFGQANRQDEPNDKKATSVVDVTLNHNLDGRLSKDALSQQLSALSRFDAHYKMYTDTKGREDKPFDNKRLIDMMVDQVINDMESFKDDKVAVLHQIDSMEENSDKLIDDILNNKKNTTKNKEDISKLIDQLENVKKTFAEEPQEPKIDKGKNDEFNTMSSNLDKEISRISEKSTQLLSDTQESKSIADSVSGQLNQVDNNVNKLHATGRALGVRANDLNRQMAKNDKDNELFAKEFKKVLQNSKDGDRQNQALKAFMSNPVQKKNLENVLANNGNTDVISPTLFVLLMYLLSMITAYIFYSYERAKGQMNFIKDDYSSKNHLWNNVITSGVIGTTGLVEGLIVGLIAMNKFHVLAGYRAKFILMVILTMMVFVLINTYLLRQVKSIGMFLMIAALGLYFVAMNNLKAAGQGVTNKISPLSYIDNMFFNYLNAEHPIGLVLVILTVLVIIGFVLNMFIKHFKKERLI

Molecular target: FLAG-EssB (S. aureus) (UniProt Q2G185)
Test: co-IP; M2 FLAG-capture beads hold FLAG-EssB; S. aureus membrane fractions solubilized in 50 mM Tris-HCl pH 7.5, 50 mM NaCl, 0.25% DDM; 2 h, 4°C; wild type background (EssC and the EsaA fragment also in ΔfloA, comparable amounts); immunoblot with anti-EsaA, anti-EssC, anti-mCherry

Substance | binding
EssC (from UniProt Q2G184 1-1479) | binds
full-length EsaA (from UniProt Q2G188 1-1009) | no binding
